The values that follow come from article PMC9643332 (Bioorganic Chemistry, 2022).

In the assay the target is SARS-CoV-2 3CL^pro (Severe acute respiratory syndrome coronavirus 2, UniProt P0DTD1). It is filed as biochemical.

On to `CCCCCCCCCCCCCCCC[n+]1ccccc1` [Cetylpyridinium chloride monohydrate], for which the “inhibition of protease activity in primary screening” value was “significantly inhibit”.
